Results are given in words; binding and its absence hold for the method and conditions named. Binding can be weak; no strength is given.

In paper PMC8750328 one finds binding data, which are given here for one molecule.

This test has as its target Nse1 with the vRING domain deleted, in pGBKT7 (S. pombe). The test can be described thus: two-hybrid; GAL4-based; pGADT7 or pACT2 (activation domain) and pGBKT7 (DNA-binding domain) plasmids co-transformed into S. cerevisiae PJ69-4a; growth on media lacking Leu, Trp and His (without or with 1 mM 3-aminotriazole) or adenine; 3 days at 30 °C.

B1: Nse4, complete coding sequence, in pACT2 (protein, UniProt Q6BDR8 1-300)
chain: MSSIDKRDLRKRYRNLINKVQESRLELVDEENNNLYETITTANDLFSSVDAPTEATLDALLLTKTVDLASIKARQLHIGRPKFNIELFTKNIKQFLNYPTSHSNVTRIQEIDTAWSRLGKLASNCEKQPASLNLMVGPLSFRKKERNIQRRERLQKAPNVLTQPTMLNERNITTQENNTTKNVLHISRLLQAHQPVNFLKFITNPQSYPQTVENLFYVSFLFKEGKAALVENESGILMLETRIPPTDDQVVAGEIRNIQLVLDMTMDLYENIIKEYNIKESIIPTRAPVETSTNSNTWYG
For B1, the binding result is listed as “binds”.
